Laboratory results from article PMC5514136.

How the values were obtained:
[1] = target: T1, TRIB2 (UniProt Q92519); test: pull-down; TRIB1, TRIB2 and TRIB3 as baits, binding corrected for the amount of bait (Suppl Fig. 6); source of HNF4A not told; only the target purified
T1 sequence: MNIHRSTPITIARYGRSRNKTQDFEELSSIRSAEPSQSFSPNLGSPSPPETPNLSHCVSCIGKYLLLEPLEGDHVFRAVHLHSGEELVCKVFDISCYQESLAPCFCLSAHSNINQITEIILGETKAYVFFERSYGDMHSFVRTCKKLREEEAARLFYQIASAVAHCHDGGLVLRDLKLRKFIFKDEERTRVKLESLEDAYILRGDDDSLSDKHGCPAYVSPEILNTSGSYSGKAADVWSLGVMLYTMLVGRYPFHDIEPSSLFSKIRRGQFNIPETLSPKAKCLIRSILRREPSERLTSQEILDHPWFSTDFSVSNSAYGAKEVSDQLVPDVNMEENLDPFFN

[2] = target: GST-TRIB1 (human); test: pull-down; competition: synthetic peptide added with the prey lysate to GST-TRIB1 on beads; read-out is the co-isolated CEBPA; both purified
[3] = target: GST-TRIB1 (human); test: pull-down; GST-TRIB1 on GST agarose beads; HuH-7 or HepG2 lysates in IP buffer; endogenous HNF4A by Western blot; only the target purified
[4] = target: TRIB1 fragment spanning AA1–97 (human); test: pull-down; GST fusion on beads; HepG2 nuclear lysates (Suppl Fig. 7); only the target purified

binding [1]: binds
Molecule: HNF4A, P2 form (HNF4α7) (human)

binding [2]: binds
B1: CEBPA derived peptide (peptide)
peptide: SEICEDENSIDISAYIDPAAFND
modifications: biotin on the N-terminus

binding [3]: binds | binding [4]: binds
B2: endogenous HNF4A (protein, UniProt P41235 1-474)
chain: MRLSKTLVDMDMADYSAALDPAYTTLEFENVQVLTMGNDTSPSEGTNLNAPNSLGVSALCAICGDRATGKHYGASSCDGCKGFFRRSVRKNHMYSCRFSRQCVVDKDKRNQCRYCRLKKCFRAGMKKEAVQNERDRISTRRSSYEDSSLPSINALLQAEVLSRQITSPVSGINGDIRAKKIASIADVCESMKEQLLVLVEWAKYIPAFCELPLDDQVALLRAHAGEHLLLGATKRSMVFKDVLLLGNDYIVPRHCPELAEMSRVSIRILDELVLPFQELQIDDNEYAYLKAIIFFDPDAKGLSDPGKIKRLRSQVQVSLEDYINDRQYDSRGRFGELLLLLPTLQSITWQMIEQIQFIKLFGMAKIDNLLQEMLLGGSPSDAPHAHHPLHPHLMQEHMGTNVIVANTMPTHLSNGQMCEWPRPRGQAATPETPQPSPPGGSGSEPYKLLPGAVATIVKPLSAIPQPTITKQEVI

Results are given in words; binding and its absence hold for the method and conditions named. Binding seen in cells or lysates may run through a third protein. A result given as binding can be weak or reduced; the word gives no strength. One block for each molecule: values may come before it.
